39 compounds from PubChem BioAssay AID2685 (National Center for Advancing Translational Sciences (NCATS), 2010) can be followed below.

Broadly, the AC50 is the midpoint of the concentration-response curve, whichever way the signal moves. Lower therefore signals activity at low concentration.

The assay can be described thus: qHTS Assay for Lipid Storage Modulators in Drosophila S3 Cells.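 For cell number change: cells counted by Cell Tracker Red CMTPX staining in the red channel.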 The note with it: BODIPY lipid droplet fluorescence, 18-24 h; for cell number change: measured here: cell count max response, cells fed with added oleic acid. Summed up:
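Laser-scanning cytometry quantifies lipid droplet accumulation (500–530 nm total intensity; droplet/cell object ratio) in oleic acid-fed (400 uM added) Drosophila S3 cells treated with a concentration series. 20 uM Triacsin C defined 100% inhibition.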

Where [1] appears, read: measured here: lipid fluorescence (Fed channel) AC50, cells fed with added oleic acid.
The mark [2] stands for this setting: measured here: cell number channel AC50, cells fed with added oleic acid.

Each structure is given as a SMILES string. The list shows a part of the results. The main result of the screen is listed elsewhere. These columns were measured beside it and carry no call. Most of these compounds were active or inconclusive in the main read-out, so they are no random draw. The note in brackets gives the kind of curve behind each potency; many fits are weak.

Consider `CCNc1nc(SC(C(C)=O)C(C)=O)nc(N(C)C)n1`, for which the cell number change turned out to be 123%. The AC50 under setting [1] is 29.1 µM [rising, single point].
With `O=c1[nH]c(=S)[nH]c2c1C(c1ccc(Br)cc1)c1c([nH]c(=S)[nH]c1=O)O2`, the cell number change stood at 2.7%. Besides, under setting [1], the AC50 was 29.1 µM [falling, single point].
Turning to `Cc1ccc(S(=O)(=O)CC(C)N2CCOCC2)c(S(=O)(=O)CC(C)N2CCOCC2)c1` (configuration not stated), the cell number change worked out at 11.5%.
Consider `CCN(c1ccccc1)S(=O)(=O)c1ccc(C(=O)NNC(=O)c2ccccc2F)cc1`, for which the cell number change was -4.41%. Also, under setting [1], the AC50 was 29.1 µM [falling, single point].
With `CN1C(C(=O)N2CCc3ccccc3C2)=CC(c2ccc(F)cc2)=NS1(=O)=O`, the cell number change turned out to be 13.4%.
Regarding `CCN(CC)S(=O)(=O)c1cc(NC(=O)COC(=O)CCc2nc3ccccc3s2)ccc1C`, the cell number change stood at 70.1%. Further, the AC50 under setting [2] was 18.4 µM [rising, single point].
On to `CCOC(=O)c1c(C)nc2c(C)cccn12`, for which the AC50 under setting [1] is 3.66 µM [rising, single point].
Take `CC(C)Cc1cc(C(=O)Nc2ccc(F)cc2F)no1`: the AC50 under setting [1] is 25.9 µM [falling, single point].
As to `c1cc(-n2cnnn2)ccc1NC1=NCCC1`, the cell number change was -13.6%. Also, the half-maximal activity concentration (AC50) under setting [1] was 29.1 µM [falling, single point].
With `CCOC(=O)C(=Cc1cc(=O)c(OC)co1)C(=O)OCC`, the cell number change is -80.4%. Also, the AC50 under setting [2] is 18.4 µM [falling, partial curve]. The AC50 under setting [1] is 5.8 µM [falling, partial curve].
Regarding `CN(C(=S)NC(=O)CCCOc1ccc(Cl)cc1Cl)c1ccccc1`, under setting [1], the AC50 was 6.51 µM [falling, single point].
Regarding `CC(C)(C)C(=O)Nc1cc(S(=O)(=O)Nc2ccc(Cl)cc2)ccc1Cl`, the cell number change was -59.7%. The AC50 under setting [2] was 29.1 µM [falling, single point]. Also, the AC50 under setting [1] is 29.1 µM [falling, single point].
Turning to `COc1ccc(COCC(O)CN2CCCCC2)cc1OC` (configuration not stated), the cell number change worked out at 19.9%. Besides, the AC50 under setting [2] was 0.58 µM [rising, full curve, poor fit].
Take `CC(C)C(=O)Nc1sc2c(c1-c1nc3ccccc3[nH]1)CCCC2`: under setting [2], the AC50 was 0.146 µM [rising, full curve, poor fit].
On to `CCOC(=O)N1CCN(C(=O)c2ccc(NC(=O)CC)cc2)CC1`, for which the AC50 under setting [1] was 29.1 µM [rising, single point].
For the compound `Cc1ccc(SCCCCN2CCNCC2)cc1`, the cell number change stood at 5.8%.
In the case of `CN(C)C(=O)CSc1ccc(S(=O)(=O)N2CCCC2)cn1`, the cell number change was 2.24%. Besides, under setting [1], the AC50 is 0.411 µM [rising, full curve].
For the compound `Cc1ccc(Cl)c(NC(=O)CN2CCNC(=O)C2)c1Cl`, the cell number change was -40.2%. Moreover, under setting [1], the half-maximal activity concentration (AC50) was 10.3 µM [falling, single point].
Take `CC1CN(C(=O)CCC(=O)NCc2ccccc2Cl)c2ccccc2S1` (configuration not stated): the cell number change turned out to be 19.3%.
Turning to `O=C(Nc1ccc(Oc2ccc(Br)cc2)cc1)C1=CC=CN2CCS(=O)(=O)N=C12`, the cell number change was -10.8%. Also, the AC50 under setting [1] was 2.59 µM [rising, partial curve, poor fit].
In the case of `CCOc1ccc(Br)cc1S(=O)(=O)Nc1ccc(C(=O)OCC(=O)Nc2ccc(C#N)cc2)cc1`, the cell number change worked out at 2.55%. In addition, the AC50 under setting [1] is 0.206 µM [falling, full curve, poor fit].
`COc1ccc(C(=O)/C=C\c2ccc(NC(=O)c3cccs3)cc2)cc1`: the cell number change was -13.4%. In addition, under setting [1], the AC50 was 20.6 µM [falling, single point].
Consider `CN(C)C1(CNC(=O)C2CCC(=O)N(Cc3ccc(Cl)cc3)C2)CCCCC1` (configuration not stated), for which the AC50 under setting [1] was 6.51 µM [falling, single point].
For `Cc1ccc(N2CC(C)Cn3c2nc2c3c(=O)[nH]c(=O)n2C)cc1C` (configuration not stated), the cell number change was -8.33%. Further, under setting [1], the concentration at half-maximal activity (AC50) was 6.51 µM [falling, single point].
Take `Cn1nc(N2CCN(S(=O)(=O)c3ccccc3)CC2)c(=O)n(C)c1=O`: the cell number change is -12.2%. The half-maximal activity concentration (AC50) under setting [1] was 0.291 µM [falling, full curve, poor fit].
As to `Cc1ccc(-c2n[nH]c(=O)c3ccccc23)cc1S(=O)(=O)NCCO`, the cell number change is 2.88%. The AC50 under setting [1] was 23.1 µM [rising, partial curve].
As for `CSc1nc(Cl)c(Cc2ccc(OC(C)C)cc2)c(N2CCOCC2)n1`, the cell number change is -9.96%.
Take `Cc1nn(C)cc1S(=O)(=O)Nc1ccccc1Br`: the cell number change was found to be 11.6%. The concentration at half-maximal activity (AC50) under setting [1] was 29.1 µM [rising, partial curve, poor fit].
As for `N#Cc1c(NC(=O)C2C3C=CC(C3)C2C(=O)O)sc2c1CCCCC2` (configuration not stated), the cell number change is -10.5%. Moreover, the AC50 under setting [1] was 0.0231 µM [falling, full curve, poor fit].
Take `CCOC(=O)c1[nH]c(C)c(C(=O)Nc2ccc(C)c(F)c2)c1C`: the AC50 was 1.46 µM [rising, partial curve] under setting [2] and 0.366 µM [rising, full curve] under setting [1].
Take `Cc1ccc(NC(=O)CSc2nc3[nH]ncc3c(=O)[nH]2)c(C)c1`: the cell number change came out at 4.98%.
Regarding `O=C1CN(C(=O)COC(=O)C2CCN(S(=O)(=O)c3ccccc3C(F)(F)F)CC2)c2ccccc2N1`, the cell number change turned out to be 46%. Moreover, under setting [2], the AC50 was 29.1 µM [rising, single point].
Take `COc1ccc(N2CCN(C(=O)c3oc4ccccc4c3C)CC2)cc1`: the cell number change was -10.3%. Further, the AC50 under setting [1] is 0.13 µM [rising, full curve, poor fit].
`CC(=O)Nc1nc2c(s1)C(=O)NCCC2`: the cell number change is -49.2%. Besides, under setting [2], the AC50 was 29.1 µM [falling, single point]. The AC50 under setting [1] is 13 µM [falling, partial curve].
For the compound `COc1ccccc1-c1nnc(SCC(=O)OC(C)C)o1`, the cell number change was -42.8%. Besides, under setting [2], the AC50 was 0.82 µM [falling, full curve, poor fit].
As to `O=C1CC(Sc2ccc(Cl)cc2)C(=O)N1Cc1ccncc1` (configuration not stated), the cell number change was determined as 65.5%. Further, the AC50 under setting [2] is 8.2 µM [rising, partial curve]. In addition, the concentration at half-maximal activity (AC50) under setting [1] is 0.731 µM [rising, single point].
As to `Cc1cc(C)c2c(NC(=S)NC(=O)c3ccccc3)nn(C)c2n1`, the cell number change amounted to 13.6%. Further, under setting [2], the AC50 was 2.91 µM [rising, partial curve]. For the same compound, the AC50 under setting [1] was 6.51 µM [rising, partial curve].
Take `O=C(CSc1nnnn1-c1ccc(Cl)cc1)Nc1cccnc1Cl`: the cell number change is -11%. The AC50 under setting [1] is 10.3 µM [falling, partial curve].
Consider `Cc1cc(OCC(=O)Nc2ccncc2)ccc1Cl`, for which the cell number change was -44.1%. Further, the half-maximal activity concentration (AC50) under setting [2] is 14.6 µM [falling, partial curve, poor fit]. In addition, under setting [1], the AC50 was 5.8 µM [falling, full curve, poor fit].
